Data source: PubChem BioAssay AID1159579 (Peter MacCallum Cancer Centre, 2015)

Test: 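Follow-up screen seeking modulators of motility in lymphatic endothelial cells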 (follow-up of hits)
Cell system: human dermal lymphatic endothelial cells
Reagents: single siRNA against human genes, 25 nM
Detection: 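Scratch wound imaging measuring area filled by moving cells plus nuclei number, averaged over two wells and scaled to mock-transfected controls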
Reading the numbers: migration relative to mock: higher = more migration into the scratch; mean nuclei count: higher = more cells remaining
Active means: 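a ratio of at most 0.6 or at least 1.3 marks altered migration and an active call; a mean nuclei count under 3300 forces an inactive call regardless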
Meaning of the calls: active = migration changed (impaired or accelerated); inactive = no migration change, or too few cells
This is one part, drawn at random, of about 2,000 reagents. 549 of them (27%) count as active. 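Some migration ratios are negative; siRNAs with too few cells are inactive whatever their migration ratio.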 Entries without a mark were called inactive. The numbers tell different reagents against one gene apart. Further read-outs or replicates are left out here. Not given: the time to read-out.

The first 5 entries, to show the layout:
gene symbol	reagent no.	migration relative to mock	mean nuclei count
CNKSR1 (connector enhancer of kinase suppressor of Ras 1)	1	0.68	6046
CNKSR1 (connector enhancer of kinase suppressor of Ras 1)	2	0.34 (active)	3586
CNKSR1 (connector enhancer of kinase suppressor of Ras 1)	3	0.72	5140
CNKSR1 (connector enhancer of kinase suppressor of Ras 1)	4	0.15 (active)	4135
CLPTM1L (CLPTM1 like)	1	0.64	4328

The listing, from the first entry:
gene symbol	reagent no.	migration relative to mock	mean nuclei count
CNKSR1 (connector enhancer of kinase suppressor of Ras 1)	1	0.68	6046
CNKSR1 (connector enhancer of kinase suppressor of Ras 1)	2	0.34 (active)	3586
CNKSR1 (connector enhancer of kinase suppressor of Ras 1)	3	0.72	5140
CNKSR1 (connector enhancer of kinase suppressor of Ras 1)	4	0.15 (active)	4135
CLPTM1L (CLPTM1 like)	1	0.64	4328
CLPTM1L (CLPTM1 like)	2	0.65	4772
CLPTM1L (CLPTM1 like)	3	1	4620
CLPTM1L (CLPTM1 like)	4	0.97	5680
ATP6V0D1 (ATPase H+ transporting V0 subunit d1)	1	0.3 (active)	6080
ATP6V0D1 (ATPase H+ transporting V0 subunit d1)	2	0.72	5302
ATP6V0D1 (ATPase H+ transporting V0 subunit d1)	3	0.65	5319
ATP6V0D1 (ATPase H+ transporting V0 subunit d1)	4	0.98	7135
AXIN1 (axin 1)	1	0.69	5354
AXIN1 (axin 1)	2	1.06	6636
AXIN1 (axin 1)	3	0.96	6740
AXIN1 (axin 1)	4	0.85	5098
MYL4 (myosin light chain 4)	1	1.09	5046
MYL4 (myosin light chain 4)	2	0.12 (active)	3426
MYL4 (myosin light chain 4)	3	0.67	4585
MYL4 (myosin light chain 4)	4	1.07	5630
PPP1R35 (protein phosphatase 1 regulatory subunit 35)	1	1.2	5975
PPP1R35 (protein phosphatase 1 regulatory subunit 35)	2	1.04	4286
PPP1R35 (protein phosphatase 1 regulatory subunit 35)	3	0.7	4909
PPP1R35 (protein phosphatase 1 regulatory subunit 35)	4	0.99	5599
APOBEC3A (apolipoprotein B mRNA editing enzyme catalytic subunit 3A)	1	0.8	7283
APOBEC3A (apolipoprotein B mRNA editing enzyme catalytic subunit 3A)	2	0.5 (active)	5040
APOBEC3A (apolipoprotein B mRNA editing enzyme catalytic subunit 3A)	3	0.78	6080
APOBEC3A (apolipoprotein B mRNA editing enzyme catalytic subunit 3A)	4	1.17	7494
CDKL5 (cyclin dependent kinase like 5)	1	0.73	6932
CDKL5 (cyclin dependent kinase like 5)	2	1.06	6410
CDKL5 (cyclin dependent kinase like 5)	3	0.63	5848
CDKL5 (cyclin dependent kinase like 5)	4	1.17	6673
PLPP1 (phospholipid phosphatase 1)	1	0.4 (active)	5822
PLPP1 (phospholipid phosphatase 1)	2	0.99	6564
PLPP1 (phospholipid phosphatase 1)	3	0.58 (active)	8020
PLPP1 (phospholipid phosphatase 1)	4	0.98	7704
SLFN12 (schlafen family member 12)	1	0.54 (active)	6484
SLFN12 (schlafen family member 12)	2	0.66	5564
SLFN12 (schlafen family member 12)	3	0.84	6361
SLFN12 (schlafen family member 12)	4	0.63	5334
SRSF1 (serine and arginine rich splicing factor 1)	1	-1.3	1180
SRSF1 (serine and arginine rich splicing factor 1)	2	1.28	5313
SRSF1 (serine and arginine rich splicing factor 1)	3	0.79	5078
SRSF1 (serine and arginine rich splicing factor 1)	4	1.04	5506
AGR2	1	1.17	5790
AGR2	2	0.74	4554
AGR2	3	1.13	5484
AGR2	4	1.08	5942
